Experimental findings from article PMC12133338 are described below.

The chains behind the UniProt entries cited, without tags or fusion partners.
UniProt O14647: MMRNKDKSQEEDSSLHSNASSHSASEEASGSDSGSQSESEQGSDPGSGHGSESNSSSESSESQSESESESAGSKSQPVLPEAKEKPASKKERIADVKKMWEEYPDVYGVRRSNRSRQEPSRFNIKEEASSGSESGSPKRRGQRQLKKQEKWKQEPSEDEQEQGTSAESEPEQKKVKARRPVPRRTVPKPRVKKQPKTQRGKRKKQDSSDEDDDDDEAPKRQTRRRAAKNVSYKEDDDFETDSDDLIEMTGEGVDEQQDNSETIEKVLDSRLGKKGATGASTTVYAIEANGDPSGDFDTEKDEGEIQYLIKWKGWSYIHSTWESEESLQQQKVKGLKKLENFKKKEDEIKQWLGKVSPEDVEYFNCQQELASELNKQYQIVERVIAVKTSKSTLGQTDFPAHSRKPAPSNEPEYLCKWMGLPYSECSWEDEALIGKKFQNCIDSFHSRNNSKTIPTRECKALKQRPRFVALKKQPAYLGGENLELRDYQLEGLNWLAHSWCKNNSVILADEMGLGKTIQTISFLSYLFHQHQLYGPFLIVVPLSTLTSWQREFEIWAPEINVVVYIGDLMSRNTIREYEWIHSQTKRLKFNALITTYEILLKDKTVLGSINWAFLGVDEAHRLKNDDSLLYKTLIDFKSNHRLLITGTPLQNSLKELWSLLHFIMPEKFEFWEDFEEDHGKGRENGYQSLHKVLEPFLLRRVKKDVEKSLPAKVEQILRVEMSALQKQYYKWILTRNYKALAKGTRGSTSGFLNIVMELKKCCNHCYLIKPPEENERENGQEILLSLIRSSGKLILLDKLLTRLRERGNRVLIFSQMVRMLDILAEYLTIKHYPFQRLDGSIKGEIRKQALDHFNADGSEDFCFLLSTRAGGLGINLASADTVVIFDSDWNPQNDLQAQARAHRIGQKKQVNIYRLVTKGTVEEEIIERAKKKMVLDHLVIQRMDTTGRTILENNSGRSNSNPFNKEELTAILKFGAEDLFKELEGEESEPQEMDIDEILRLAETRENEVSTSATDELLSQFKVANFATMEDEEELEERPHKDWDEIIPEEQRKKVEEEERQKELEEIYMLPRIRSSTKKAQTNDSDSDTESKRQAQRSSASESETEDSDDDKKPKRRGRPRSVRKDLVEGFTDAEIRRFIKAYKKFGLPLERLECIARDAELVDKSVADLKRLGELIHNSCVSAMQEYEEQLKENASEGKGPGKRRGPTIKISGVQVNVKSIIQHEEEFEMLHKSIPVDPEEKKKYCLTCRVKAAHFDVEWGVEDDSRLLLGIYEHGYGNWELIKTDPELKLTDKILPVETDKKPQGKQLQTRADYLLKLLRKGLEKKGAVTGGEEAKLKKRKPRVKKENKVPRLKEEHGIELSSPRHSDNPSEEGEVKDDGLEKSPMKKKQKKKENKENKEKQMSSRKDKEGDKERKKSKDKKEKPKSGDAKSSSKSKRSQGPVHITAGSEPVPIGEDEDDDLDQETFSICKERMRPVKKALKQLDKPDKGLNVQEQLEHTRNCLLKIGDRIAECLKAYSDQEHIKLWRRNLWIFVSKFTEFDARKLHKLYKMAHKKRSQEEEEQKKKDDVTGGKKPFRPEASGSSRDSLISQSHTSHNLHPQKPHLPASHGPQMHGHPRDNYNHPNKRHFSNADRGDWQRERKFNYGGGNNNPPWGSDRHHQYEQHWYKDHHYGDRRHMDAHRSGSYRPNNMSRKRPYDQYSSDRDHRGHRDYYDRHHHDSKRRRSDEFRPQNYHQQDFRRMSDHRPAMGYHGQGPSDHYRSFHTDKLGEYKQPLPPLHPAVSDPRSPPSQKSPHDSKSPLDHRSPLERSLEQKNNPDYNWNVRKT
UniProt Q14839: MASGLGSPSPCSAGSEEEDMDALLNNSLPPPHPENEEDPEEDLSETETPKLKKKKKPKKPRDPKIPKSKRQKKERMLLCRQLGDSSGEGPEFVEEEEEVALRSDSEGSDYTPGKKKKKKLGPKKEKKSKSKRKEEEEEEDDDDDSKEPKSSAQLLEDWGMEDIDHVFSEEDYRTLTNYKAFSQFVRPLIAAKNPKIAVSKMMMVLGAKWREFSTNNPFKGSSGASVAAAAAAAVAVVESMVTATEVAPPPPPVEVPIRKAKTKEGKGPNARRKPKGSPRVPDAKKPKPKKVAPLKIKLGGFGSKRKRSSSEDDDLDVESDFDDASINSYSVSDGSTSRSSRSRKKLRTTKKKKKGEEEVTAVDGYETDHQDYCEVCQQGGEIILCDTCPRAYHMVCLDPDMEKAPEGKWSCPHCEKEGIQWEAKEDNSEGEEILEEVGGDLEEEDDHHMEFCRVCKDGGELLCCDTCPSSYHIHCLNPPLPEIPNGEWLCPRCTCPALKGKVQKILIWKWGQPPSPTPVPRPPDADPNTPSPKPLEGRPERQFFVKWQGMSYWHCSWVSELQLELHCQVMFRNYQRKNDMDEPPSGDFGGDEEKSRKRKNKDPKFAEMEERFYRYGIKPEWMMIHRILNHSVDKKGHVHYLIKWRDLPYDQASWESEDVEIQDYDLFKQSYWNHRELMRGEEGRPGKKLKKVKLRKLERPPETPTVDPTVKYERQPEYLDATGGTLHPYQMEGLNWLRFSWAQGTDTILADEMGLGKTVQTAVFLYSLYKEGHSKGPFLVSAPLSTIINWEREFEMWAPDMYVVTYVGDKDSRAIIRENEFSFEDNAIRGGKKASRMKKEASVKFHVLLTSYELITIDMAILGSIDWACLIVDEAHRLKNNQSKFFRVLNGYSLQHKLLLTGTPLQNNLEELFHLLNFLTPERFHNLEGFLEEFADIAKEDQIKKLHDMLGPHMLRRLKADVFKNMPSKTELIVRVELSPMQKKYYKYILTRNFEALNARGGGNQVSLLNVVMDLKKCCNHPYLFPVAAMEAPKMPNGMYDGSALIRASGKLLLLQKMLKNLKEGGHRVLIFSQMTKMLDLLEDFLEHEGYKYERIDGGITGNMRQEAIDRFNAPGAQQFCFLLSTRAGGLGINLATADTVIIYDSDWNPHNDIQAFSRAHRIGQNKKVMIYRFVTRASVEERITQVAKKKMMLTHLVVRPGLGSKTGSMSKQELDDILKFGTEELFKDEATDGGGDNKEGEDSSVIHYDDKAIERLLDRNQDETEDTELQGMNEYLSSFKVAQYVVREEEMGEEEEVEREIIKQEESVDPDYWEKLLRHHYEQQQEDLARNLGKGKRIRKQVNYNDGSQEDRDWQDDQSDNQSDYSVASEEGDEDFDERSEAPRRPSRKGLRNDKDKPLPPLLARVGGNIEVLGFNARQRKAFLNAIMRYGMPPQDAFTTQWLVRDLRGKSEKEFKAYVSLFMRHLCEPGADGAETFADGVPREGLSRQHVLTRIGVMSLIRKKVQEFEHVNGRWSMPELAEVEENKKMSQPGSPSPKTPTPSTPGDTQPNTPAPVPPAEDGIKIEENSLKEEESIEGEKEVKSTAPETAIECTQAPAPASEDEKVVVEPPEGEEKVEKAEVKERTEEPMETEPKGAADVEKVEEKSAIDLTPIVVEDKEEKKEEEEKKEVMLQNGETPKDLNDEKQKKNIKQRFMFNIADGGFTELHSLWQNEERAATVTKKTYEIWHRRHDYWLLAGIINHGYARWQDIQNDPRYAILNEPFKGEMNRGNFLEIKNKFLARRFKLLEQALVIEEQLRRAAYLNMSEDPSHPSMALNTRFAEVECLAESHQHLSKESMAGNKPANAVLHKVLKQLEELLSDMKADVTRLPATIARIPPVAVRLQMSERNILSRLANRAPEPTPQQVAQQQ
UniProt P38159: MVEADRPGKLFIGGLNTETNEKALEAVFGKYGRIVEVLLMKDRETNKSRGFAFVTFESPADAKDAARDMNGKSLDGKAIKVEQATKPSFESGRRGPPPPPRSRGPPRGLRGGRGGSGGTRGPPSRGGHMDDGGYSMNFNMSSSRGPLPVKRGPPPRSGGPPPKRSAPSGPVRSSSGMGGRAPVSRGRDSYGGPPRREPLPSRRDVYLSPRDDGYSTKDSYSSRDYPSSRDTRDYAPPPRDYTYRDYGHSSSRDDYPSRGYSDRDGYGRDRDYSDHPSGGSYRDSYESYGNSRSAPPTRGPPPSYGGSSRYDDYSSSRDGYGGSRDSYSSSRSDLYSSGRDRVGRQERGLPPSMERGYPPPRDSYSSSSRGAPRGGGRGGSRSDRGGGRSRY
UniProt O60264: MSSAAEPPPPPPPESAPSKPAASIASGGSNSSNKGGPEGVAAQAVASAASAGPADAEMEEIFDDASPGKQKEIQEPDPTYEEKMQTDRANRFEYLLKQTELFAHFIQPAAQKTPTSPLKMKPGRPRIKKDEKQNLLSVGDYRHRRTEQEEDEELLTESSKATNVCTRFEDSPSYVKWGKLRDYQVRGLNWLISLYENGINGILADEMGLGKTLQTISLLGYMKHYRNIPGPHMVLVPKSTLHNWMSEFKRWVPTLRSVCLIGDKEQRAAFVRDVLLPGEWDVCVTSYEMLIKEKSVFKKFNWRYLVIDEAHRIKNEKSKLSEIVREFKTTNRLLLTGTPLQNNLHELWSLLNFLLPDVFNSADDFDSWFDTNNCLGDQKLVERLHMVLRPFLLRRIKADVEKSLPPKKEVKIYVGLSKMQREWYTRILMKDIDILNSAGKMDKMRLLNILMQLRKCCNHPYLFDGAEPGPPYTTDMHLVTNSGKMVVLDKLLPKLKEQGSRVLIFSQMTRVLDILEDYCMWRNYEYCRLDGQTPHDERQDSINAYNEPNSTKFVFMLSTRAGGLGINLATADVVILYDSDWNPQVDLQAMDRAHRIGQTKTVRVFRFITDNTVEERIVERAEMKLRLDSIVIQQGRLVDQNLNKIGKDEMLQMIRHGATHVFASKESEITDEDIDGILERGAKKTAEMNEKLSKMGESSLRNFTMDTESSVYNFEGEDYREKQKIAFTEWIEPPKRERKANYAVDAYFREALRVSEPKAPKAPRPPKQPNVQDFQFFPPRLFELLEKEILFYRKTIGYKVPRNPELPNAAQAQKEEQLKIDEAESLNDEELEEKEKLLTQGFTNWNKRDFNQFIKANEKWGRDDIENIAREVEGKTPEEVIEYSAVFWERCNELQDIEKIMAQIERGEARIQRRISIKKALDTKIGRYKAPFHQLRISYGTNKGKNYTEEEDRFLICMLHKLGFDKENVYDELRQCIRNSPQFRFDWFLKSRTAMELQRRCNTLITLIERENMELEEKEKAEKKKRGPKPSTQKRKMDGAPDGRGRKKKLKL
UniProt Q13242: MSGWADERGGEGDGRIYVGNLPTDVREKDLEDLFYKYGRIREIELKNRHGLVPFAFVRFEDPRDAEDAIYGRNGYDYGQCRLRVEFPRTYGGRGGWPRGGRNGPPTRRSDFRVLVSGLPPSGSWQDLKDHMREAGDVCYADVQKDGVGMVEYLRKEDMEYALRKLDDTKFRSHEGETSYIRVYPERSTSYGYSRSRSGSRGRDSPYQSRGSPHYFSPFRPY
UniProt P11387: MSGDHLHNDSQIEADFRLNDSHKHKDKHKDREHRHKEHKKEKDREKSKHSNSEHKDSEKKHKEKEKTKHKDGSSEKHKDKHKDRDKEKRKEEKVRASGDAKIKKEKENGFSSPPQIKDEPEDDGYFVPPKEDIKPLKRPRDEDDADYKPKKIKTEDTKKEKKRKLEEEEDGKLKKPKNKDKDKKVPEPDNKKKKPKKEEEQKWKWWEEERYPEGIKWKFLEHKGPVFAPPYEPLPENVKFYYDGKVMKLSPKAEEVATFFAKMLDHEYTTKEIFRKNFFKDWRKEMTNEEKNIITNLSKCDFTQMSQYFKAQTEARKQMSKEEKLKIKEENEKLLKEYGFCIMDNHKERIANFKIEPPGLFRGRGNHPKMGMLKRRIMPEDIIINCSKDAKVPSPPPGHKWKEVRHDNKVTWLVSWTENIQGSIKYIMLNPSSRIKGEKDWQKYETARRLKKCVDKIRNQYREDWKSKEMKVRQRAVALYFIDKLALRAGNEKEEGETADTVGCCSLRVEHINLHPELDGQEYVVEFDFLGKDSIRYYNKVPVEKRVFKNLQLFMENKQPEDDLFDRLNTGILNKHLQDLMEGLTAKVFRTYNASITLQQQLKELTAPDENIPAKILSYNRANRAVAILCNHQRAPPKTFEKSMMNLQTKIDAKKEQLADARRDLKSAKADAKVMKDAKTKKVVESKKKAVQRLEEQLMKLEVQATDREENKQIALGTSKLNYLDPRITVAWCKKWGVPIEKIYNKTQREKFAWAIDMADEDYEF

Results are given in words; binding and its absence hold for the method and conditions named. In cells and extracts the contact can be indirect. A yes stands for co-enrichment or nearness to the bait. Other partners may have been found. No binding means not detected with the bait.

The test concerns the target T1, Kaiso (ZBTB33) (human (endogenous in HCT116)) (UniProt Q86T24).
T1 sequence: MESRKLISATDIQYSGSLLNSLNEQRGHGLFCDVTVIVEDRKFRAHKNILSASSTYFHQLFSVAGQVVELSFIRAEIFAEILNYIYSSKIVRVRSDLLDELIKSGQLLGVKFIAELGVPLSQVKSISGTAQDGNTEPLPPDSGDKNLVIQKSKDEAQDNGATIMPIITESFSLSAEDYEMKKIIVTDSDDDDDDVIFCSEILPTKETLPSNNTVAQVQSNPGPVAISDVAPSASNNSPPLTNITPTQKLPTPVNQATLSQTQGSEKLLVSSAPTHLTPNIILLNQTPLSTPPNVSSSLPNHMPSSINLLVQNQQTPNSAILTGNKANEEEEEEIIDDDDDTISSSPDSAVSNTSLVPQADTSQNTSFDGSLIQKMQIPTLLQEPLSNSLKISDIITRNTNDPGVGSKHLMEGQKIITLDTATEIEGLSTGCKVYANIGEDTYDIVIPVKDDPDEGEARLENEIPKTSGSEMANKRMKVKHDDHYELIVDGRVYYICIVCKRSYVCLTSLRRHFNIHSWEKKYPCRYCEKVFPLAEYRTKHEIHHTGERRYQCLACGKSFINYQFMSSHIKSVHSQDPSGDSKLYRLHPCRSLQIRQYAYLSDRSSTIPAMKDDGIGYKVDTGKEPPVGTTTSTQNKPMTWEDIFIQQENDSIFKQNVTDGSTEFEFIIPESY
In words: affinity purification with mass spectrometry; ReCLIP: HCT116 nuclei crosslinked with 0.5 mM DSP and 0.5 mM DTME (protein-protein only, no protein/DNA crosslinking), high-salt nuclear extract, IP with Kaiso monoclonal antibody 6F or 12G on Protein G Dynabeads (mouse IgG control), elution with RIPA + 50 mM DTT, LC-MS/MS.

Consider CHD2 (from UniProt O14647 1-1828), for which the binding result is “no binding”.

Regarding CHD4 (from UniProt Q14839 1-1912), the binding result is listed as “binds”.

Regarding RBMX (from UniProt P38159 1-391), the binding result is “binds”.

Regarding SMARCA5 (from UniProt O60264 1-1052), the binding entry is reported as “binds”.

Regarding SRSF9 (from UniProt Q13242 1-221), the binding entry is listed as “binds”.

Regarding “TOP1 (topoisomerase 1) (from UniProt P11387 1-765)”, the binding result is on record as “binds”.

B1: PSPC1 (protein, UniProt Q8WXF1 1-523)
chain: MMLRGNLKQVRIEKNPARLRALESAVGESEPAAAAAMALALAGEPAPPAPAPPEDHPDEEMGFTIDIKSFLKPGEKTYTQRCRLFVGNLPTDITEEDFKRLFERYGEPSEVFINRDRGFGFIRLESRTLAEIAKAELDGTILKSRPLRIRFATHGAALTVKNLSPVVSNELLEQAFSQFGPVEKAVVVVDDRGRATGKGFVEFAAKPPARKALERCGDGAFLLTTTPRPVIVEPMEQFDDEDGLPEKLMQKTQQYHKEREQPPRFAQPGTFEFEYASRWKALDEMEKQQREQVDRNIREAKEKLEAEMEAARHEHQLMLMRQDLMRRQEELRRLEELRNQELQKRKQIQLRHEEEHRRREEEMIRHREQEELRRQQEGFKPNYMENREQEMRMGDMGPRGAINMGDAFSPAPAGNQGPPPMMGMNMNNRATIPGPPMGPGPAMGPEGAANMGTPMMPDNGAVHNDRFPQGPPSQMGSPMGSRTGSETPQAPMSGVGPVSGGPGGFGRGSQGGNFEGPNKRRRY
Take B1: the binding result is given as “binds”.

B2: ADAR (protein, UniProt P55265 1-1226)
chain: MNPRQGYSLSGYYTHPFQGYEHRQLRYQQPGPGSSPSSFLLKQIEFLKGQLPEAPVIGKQTPSLPPSLPGLRPRFPVLLASSTRGRQVDIRGVPRGVHLRSQGLQRGFQHPSPRGRSLPQRGVDCLSSHFQELSIYQDQEQRILKFLEELGEGKATTAHDLSGKLGTPKKEINRVLYSLAKKGKLQKEAGTPPLWKIAVSTQAWNQHSGVVRPDGHSQGAPNSDPSLEPEDRNSTSVSEDLLEPFIAVSAQAWNQHSGVVRPDSHSQGSPNSDPGLEPEDSNSTSALEDPLEFLDMAEIKEKICDYLFNVSDSSALNLAKNIGLTKARDINAVLIDMERQGDVYRQGTTPPIWHLTDKKRERMQIKRNTNSVPETAPAAIPETKRNAEFLTCNIPTSNASNNMVTTEKVENGQEPVIKLENRQEARPEPARLKPPVHYNGPSKAGYVDFENGQWATDDIPDDLNSIRAAPGEFRAIMEMPSFYSHGLPRCSPYKKLTECQLKNPISGLLEYAQFASQTCEFNMIEQSGPPHEPRFKFQVVINGREFPPAEAGSKKVAKQDAAMKAMTILLEEAKAKDSGKSEESSHYSTEKESEKTAESQTPTPSATSFFSGKSPVTTLLECMHKLGNSCEFRLLSKEGPAHEPKFQYCVAVGAQTFPSVSAPSKKVAKQMAAEEAMKALHGEATNSMASDNQPEGMISESLDNLESMMPNKVRKIGELVRYLNTNPVGGLLEYARSHGFAAEFKLVDQSGPPHEPKFVYQAKVGGRWFPAVCAHSKKQGKQEAADAALRVLIGENEKAERMGFTEVTPVTGASLRRTMLLLSRSPEAQPKTLPLTGSTFHDQIAMLSHRCFNTLTNSFQPSLLGRKILAAIIMKKDSEDMGVVVSLGTGNRCVKGDSLSLKGETVNDCHAEIISRRGFIRFLYSELMKYNSQTAKDSIFEPAKGGEKLQIKKTVSFHLYISTAPCGDGALFDKSCSDRAMESTESRHYPVFENPKQGKLRTKVENGEGTIPVESSDIVPTWDGIRLGERLRTMSCSDKILRWNVLGLQGALLTHFLQPIYLKSVTLGYLFSQGHLTRAICCRVTRDGSAFEDGLRHPFIVNHPKVGRVSIYDSKRQSGKTKETSVNWCLADGYDLEILDGTRGTVDGPRNELSRVSKKNIFLLFKKLCSFRYRRDLLRLSYGEAKKAARDYETAKNYFKKGLKDMGYGNWISKPQEEKNFYLCPV
For the molecule B2, the binding entry is given as “binds”.

B3: NONO (protein, UniProt Q15233 1-471)
chain: MQSNKTFNLEKQNHTPRKHHQHHHQQQHHQQQQQQPPPPPIPANGQQASSQNEGLTIDLKNFRKPGEKTFTQRSRLFVGNLPPDITEEEMRKLFEKYGKAGEVFIHKDKGFGFIRLETRTLAEIAKVELDNMPLRGKQLRVRFACHSASLTVRNLPQYVSNELLEEAFSVFGQVERAVVIVDDRGRPSGKGIVEFSGKPAARKALDRCSEGSFLLTTFPRPVTVEPMDQLDDEEGLPEKLVIKNQQFHKEREQPPRFAQPGSFEYEYAMRWKALIEMEKQQQDQVDRNIKEAREKLEMEMEAARHEHQVMLMRQDLMRRQEELRRMEELHNQEVQKRKQLELRQEEERRRREEEMRRQQEEMMRRQQEGFKGTFPDAREQEIRMGQMAMGGAMGINNRGAMPPAPVPAGTPAPPGPATMMPDGTLGLTPPTTERFGQAATMEGIGAIGGTPPAFNRAAPGAEFAPNKRRRY
For B3, the binding result is “binds”.

B4: MATR3 (protein, UniProt P43243 1-847)
chain: MSKSFQQSSLSRDSQGHGRDLSAAGIGLLAAATQSLSMPASLGRMNQGTARLASLMNLGMSSSLNQQGAHSALSSASTSSHNLQSIFNIGSRGPLPLSSQHRGDADQASNILASFGLSARDLDELSRYPEDKITPENLPQILLQLKRRRTEEGPTLSYGRDGRSATREPPYRVPRDDWEEKRHFRRDSFDDRGPSLNPVLDYDHGSRSQESGYYDRMDYEDDRLRDGERCRDDSFFGETSHNYHKFDSEYERMGRGPGPLQERSLFEKKRGAPPSSNIEDFHGLLPKGYPHLCSICDLPVHSNKEWSQHINGASHSRRCQLLLEIYPEWNPDNDTGHTMGDPFMLQQSTNPAPGILGPPPPSFHLGGPAVGPRGNLGAGNGNLQGPRHMQKGRVETSRVVHIMDFQRGKNLRYQLLQLVEPFGVISNHLILNKINEAFIEMATTEDAQAAVDYYTTTPALVFGKPVRVHLSQKYKRIKKPEGKPDQKFDQKQELGRVIHLSNLPHSGYSDSAVLKLAEPYGKIKNYILMRMKSQAFIEMETREDAMAMVDHCLKKALWFQGRCVKVDLSEKYKKLVLRIPNRGIDLLKKDKSRKRSYSPDGKESPSDKKSKTDGSQKTESSTEGKEQEEKSGEDGEKDTKDDQTEQEPNMLLESEDELLVDEEEAAALLESGSSVGDETDLANLGDVASDGKKEPSDKAVKKDGSASAAAKKKLKKVDKIEELDQENEAALENGIKNEENTEPGAESSENADDPNKDTSENADGQSDENKDDYTIPDEYRIGPYQPNVPVGIDYVIPKTGFYCKLCSLFYTNEEVAKNTHCSSLPHYQKLKKFLNKLAEERRQKKET
B4: the binding result was “binds”.
